{"source": "paper PMC12102395", "binders": {"B1": {"name": "USP8 (endogenous) (enzyme, UniProt P40818 1-1118)", "chain": "MPAVASVPKELYLSSSLKDLNKKTEVKPEKISTKSYVHSALKIFKTAEECRLDRDEERAYVLYMKYVTVYNLIKKRPDFKQQQDYFHSILGPGNIKKAVEEAERLSESLKLRYEEAEVRKKLEEKDRQEEAQRLQQKRQETGREDGGTLAKGSLENVLDSKDKTQKSNGEKNEKCETKEKGAITAKELYTMMTDKNISLIIMDARRMQDYQDSCILHSLSVPEEAISPGVTASWIEAHLPDDSKDTWKKRGNVEYVVLLDWFSSAKDLQIGTTLRSLKDALFKWESKTVLRNEPLVLEGGYENWLLCYPQYTTNAKVTPPPRRQNEEVSISLDFTYPSLEESIPSKPAAQTPPASIEVDENIELISGQNERMGPLNISTPVEPVAASKSDVSPIIQPVPSIKNVPQIDRTKKPAVKLPEEHRIKSESTNHEQQSPQSGKVIPDRSTKPVVFSPTLMLTDEEKARIHAETALLMEKNKQEKELRERQQEEQKEKLRKEEQEQKAKKKQEAEENEITEKQQKAKEEMEKKESEQAKKEDKETSAKRGKEITGVKRQSKSEHETSDAKKSVEDRGKRCPTPEIQKKSTGDVPHTSVTGDSGSGKPFKIKGQPESGILRTGTFREDTDDTERNKAQREPLTRARSEEMGRIVPGLPSGWAKFLDPITGTFRYYHSPTNTVHMYPPEMAPSSAPPSTPPTHKAKPQIPAERDREPSKLKRSYSSPDITQAIQEEEKRKPTVTPTVNRENKPTCYPKAEISRLSASQIRNLNPVFGGSGPALTGLRNLGNTCYMNSILQCLCNAPHLADYFNRNCYQDDINRSNLLGHKGEVAEEFGIIMKALWTGQYRYISPKDFKITIGKINDQFAGYSQQDSQELLLFLMDGLHEDLNKADNRKRYKEENNDHLDDFKAAEHAWQKHKQLNESIIVALFQGQFKSTVQCLTCHKKSRTFEAFMYLSLPLASTSKCTLQDCLRLFSKEEKLTDNNRFYCSHCRARRDSLKKIEIWKLPPVLLVHLKRFSYDGRWKQKLQTSVDFPLENLDLSQYVIGPKNNLKKYNLFSVSNHYGGLDGGHYTAYCKNAARQRWFKFDDHEVSDISVSSVKSSAAYILFYTSLGPRVTDVAT"}}, "target": "MHC-1 (endogenous) (human (endogenous in DU145 and PC-3))", "assay": "co-IP; endogenous proteins in lysates of DU145 and/or PC-3 cells; IP lysis buffer with protease inhibitors, IgG or specific primary antibody plus protein A/G magnetic beads overnight at 4 °C, three washes, western blot", "note": "These are yes or no findings as the source states them, for the method shown. In cells and extracts the contact can be indirect.", "data": [{"binder": "B1", "values": [{"measurement": "binding", "value": "no binding"}]}]}
